Data as given in PubChem BioAssay AID1259425 (University of Nebraska Medical Center, 2018).
Test: 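Compare each knockdown with KSR1 silencing using changes in marker transcripts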 (primary screen). Cell system: HCT116 human colon cancer cells. Knock-down reagent: siRNA pool against human genes, 50 nM siRNA. Measured: 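mRNA of six signature genes measured together by branched-DNA assay after 50 nM siRNA pool, blank removed, divided by geometric mean of two housekeeping genes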. Direction: BNIP3L mRNA: higher = more BNIP3L transcript after knockdown; NDRG1 mRNA: higher = more NDRG1 transcript after knockdown; BNIP3 mRNA: higher = more BNIP3 transcript after knockdown; ALDOC mRNA: higher = more ALDOC transcript after knockdown; ACSL5 mRNA: higher = more ACSL5 transcript after knockdown.
Here is a random part of about 14,000 reagents tested. Not given: the time to read-out.

gene	BNIP3L mRNA, set 1	NDRG1 mRNA, set 1	BNIP3 mRNA, set 1	ALDOC mRNA, set 1	ACSL5 mRNA, set 1
CACNG4	0.0956	0.126	0.315	0.0177	0.0875
BAZ1B	0.16	0.437	0.173	0.0147	0.583
SLC4A10	0.184	0.118	0.434	0.0512	0.3
ADCY10	0.099	0.134	0.358	0.0342	0.193
TBX2	0.0914	0.0462	0.277	0.0099	0.138
HOXB1	0.0714	0.38	0.58	0.0395	0.118
CCDC28A	0.0932	0.126	0.443	0.038	0.0717
SACK1D	0.136	0.102	0.18	0.0631	0.143
BABAM1	0.117	0.32	0.272	0.0258	0.0809
FLOT1	0.159	0.183	0.229	0.0234	0.172
FKBP2	0.0978	0.185	0.293	0.0244	0.168
GALNT11	0.117	0.33	0.343	0.0279	0.204
ZNF133	0.0783	0.341	0.279	0.0652	0.165
MTERF3	0.073	0.0547	0.317	0.0199	0.2
MOS	0.0632	0.488	0.239	0.0141	0.34
PLLP	0.294	0.637	0.677	0.0345	0.282
TAF5	0.143	0.204	0.423	0.0346	0.241
NKX3-2	0.173	0.117	0.24	0.0197	0.123
PRDM4	0.17	0.16	0.437	0.0156	0.314
GZF1	0.0906	0.388	0.27	0.0151	0.285
LMAN1	0.0484	0.205	0.156	0.00823	0.14
VILL	0.0915	0.0652	0.29	0.0194	0.115
MERTK	0.0771	0.111	0.232	0.0056	0.243
ST6GALNAC4	0.0981	0.132	0.2	0.0107	0.26
DBP	0.0608	0.0517	0.231	0.00628	0.164
FGF9	0.0858	0.0918	0.243	0.0188	0.157
MLLT1	0.133	0.18	0.514	0.0283	0.0988
PIDD1	0.363	0.304	0.955	0.179	0.156
RPLP0	0.102	0.278	0.32	0.0169	0.15
CENPBD1P	0.0909	0.115	0.218	0.0119	0.0726
PI15	0.148	0.282	0.179	0.0167	0.355
PSD4	0.0778	0.184	0.195	0.0283	0.139
SCN3B	0.111	0.17	0.311	0.0271	0.275
ANO2	0.0841	0.0872	0.175	0.0392	0.213
CARNS1	0.109	0.192	0.0905	0.00996	0.197
LILRA1	0.123	0.868	0.483	0.00649	0.357
SATB2	0.0771	0.0927	0.272	0.0155	0.0793
FXYD2	0.277	0.166	0.57	0.101	0.438
PLGLB2	0.0599	0.383	0.394	0.0856	0.141
SLC17A7	0.126	0.15	0.384	0.0353	0.263
VN1R10P	0.0946	0.277	0.286	0.0278	0.196
MPZL1	0.0811	0.0717	0.303	0.0135	0.271
COG2	0.122	0.14	0.341	0.0527	0.116
CACYBP	0.101	0.372	0.291	0.0171	0.221
KIF1B	0.08	0.173	0.222	0.0462	0.236
MC4R	0.252	0.294	0.492	0.0484	0.278
AVIL	0.117	0.115	0.309	0.027	0.161
EVI2A	0.133	0.0502	0.228	0.00772	0.0761
FLVCR1	0.0962	0.137	0.339	0.0282	0.101
ATXN7L3	0.272	0.337	0.329	0.0704	0.329
PIAS3	0.0927	0.69	0.298	0.0287	0.132
NKX2-3	0.0673	0.21	0.291	0.012	0.143
MUC3A	0.0815	0.115	0.313	0.0206	0.0963
TMEM128	0.0808	0.148	0.239	0.0184	0.23
PUM3	0.109	0.373	0.401	0.063	0.402
BMS1	0.151	0.428	0.306	0.0304	0.205
IL31RA	0.111	0.169	0.277	0.0357	0.0979
OR7A5	0.0263	0.139	0.322	0.0402	0.169
NDUFA7	0.128	0.952	0.353	0.0198	0.186
TUBG1	0.119	0.178	0.337	0.0295	0.191
SH3BP4	0.0909	0.252	0.238	0.0184	0.197
RGPD5	0.109	0.0199	0.225	0.0131	0.105
HES2	0.15	0.334	0.316	0.0156	0.124
